Source: PubChem BioAssay AID2685 (National Center for Advancing Translational Sciences (NCATS), 2010)
The other results are listed elsewhere or left out. Further columns of the screen follow, without active or inactive calls. Compounds called inactive in the main read-out are mostly missing here. Potencies come from curve fits of mixed quality, noted in brackets.

Assay: qHTS Assay for Lipid Storage Modulators in Drosophila S3 Cells;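 on cell number change: cells counted by Cell Tracker Red CMTPX staining in the red channel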
Details: BODIPY lipid droplet fluorescence, 18-24 h; for cell number change: measured here: cell count max response, cells fed with added oleic acid
Method in brief: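 Drosophila S3 cells got compounds at several concentrations plus oleic acid (400 uM solution). Laser-scanning cytometry with 488 nm excitation read lipid droplets at 500-530 nm and cells at 575-640 nm. Percent activity was relative to 20 uM Triacsin C.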

[1] = measured here: cell number channel AC50, cells fed with added oleic acid
[2] = measured here: lipid fluorescence (Fed channel) AC50, cells fed with added oleic acid

SMILES | AC50 [1] | AC50 [2] | cell number change [%]
CC(OC(=O)c1ccccc1OCc1ccc(Cl)cc1)C(N)=O (stereo not drawn) | 0.326 µM [rising, partial curve, poor fit] | 5.17 µM [rising, single point] | –
CCOC(=O)Cn1c(-c2ccccc2)ccc(C#N)c1=O | – | 25.9 µM [falling, single point] | -15.4
C=CCn1c(SCc2nc3scc(-c4ccccc4)c3c(=O)[nH]2)nnc1-c1ccccc1F | – | 16.4 µM [falling, single point] | -1.27
Nc1nnc(CC(=O)N/N=C/c2cccc(OCCOc3ccccc3)c2)s1 | 18.4 µM [falling, single point] | 16.4 µM [falling, single point] | -65
Cc1nc(-c2ccccc2)sc1C1(C)CC(c2ccc(OC(F)(F)F)cc2)=NO1 (stereo not drawn) | – | 11.6 µM [rising, single point] | 16
CCCN(C(=O)Cc1coc2cc(C)c(C)cc12)c1c(N)n(Cc2ccccc2)c(=O)[nH]c1=O | – | – | 24
Cc1cc(C)nc(NC(=O)c2ccc([N+](=O)[O-])o2)n1 | 0.0103 µM [falling, full curve, poor fit] | 0.651 µM [falling, full curve, poor fit] | -14
CCN(C(=O)COC(=O)c1[nH]c(C)c(C(C)=O)c1C)C1CCS(=O)(=O)C1 (stereo not drawn) | – | 29.1 µM [rising, single point] | 14.5
CN(c1ccccc1)S(=O)(=O)c1ccc(Cl)c(C(=O)NCCc2c[nH]c3ccccc23)c1 | – | 20.6 µM [falling, single point] | -5.57
Cc1ccc(S(=O)(=O)N2CCOC23CCN(C(=O)c2ccccc2Br)CC3)cc1 | 25.9 µM [falling, partial curve] | 0.184 µM [falling, full curve] | -32
Cc1cccc(/C(N)=N/OC(=O)Cc2cccc3ccccc23)c1 | – | 0.00411 µM [falling, full curve, poor fit] | -8.36
COc1cccc(NC(=S)NCc2ccc3c(c2)cc(C)n3C)c1 | – | – | 12.6
CC(C)C[C@@H](N)c1nnc(SCC(=O)c2ccc(Cl)cc2)o1 | 29.1 µM [rising, single point] | 6.51 µM [falling, single point] | 33
Cc1ccc(-c2nn(-c3ccccc3)cc2C(=O)NCC(c2cccs2)N2CCOCC2)cc1 (stereo not drawn) | 0.00461 µM [rising, full curve, poor fit] | – | 5.31
N#CCSc1nc2cc(C(=O)N3CCC(C(N)=O)CC3)ccc2c2nc3ccccc3n12 | – | 0.231 µM [rising, full curve, poor fit] | 1.81
CCC(C)N(C)C(=O)c1cc2ccccc2c(-c2ccccc2Cl)n1 (stereo not drawn) | 0.326 µM [rising, full curve, poor fit] | – | -11.3
CC(OC(=O)c1ccc(C#N)cc1)C(=O)Nc1ccc(Cl)cn1 (stereo not drawn) | – | – | -11.3
COc1ccc(OC)c(/C=C/C(=O)OCC(=O)Nc2cccc(C(C)=O)c2)c1 | – | 10.3 µM [rising, partial curve] | 19.5
Cc1cc(C)n(-c2nc(Nc3ccccc3)nc(-n3nc(C)cc3C)n2)n1 | – | 0.651 µM [rising, single point] | -2.17
CN(C(=O)CSc1ncccc1C(=O)O)c1ccccc1 | – | – | -6.39

SMILES | AC50 [1] | AC50 [2] | cell number change [%]
CCN1CCN(Cc2nc(N)nc(Nc3ccc(C)c(C)c3)n2)CC1 | 1.16 µM [falling, partial curve] | – | -12.8
CCOC(=O)C1=C(c2ccccc2)NC(=O)NC1c1cc(Br)c(O)c(OC)c1 (stereo not drawn) | – | – | 1.8
O=C(CNC(=O)c1ccccc1F)N/N=C/c1cc(Br)ccc1OC(=O)/C=C/c1ccco1 | – | 7.31 µM [falling, partial curve] | 4.35
CCCSC1=C(C#N)C(c2ccc(Cl)cc2Cl)CC(=O)N1 (stereo not drawn) | 6.51 µM [falling, single point] | – | –
O=[N+]([O-])c1ccc(NCCCN2CCOCC2)c(Cl)c1 | – | 0.411 µM [falling, full curve] | -23.2
Cc1cc(=O)n2nc(N3CCCC(C(=O)NCc4ccccc4Cl)C3)sc2n1 (stereo not drawn) | 6.51 µM [falling, single point] | 8.2 µM [falling, partial curve] | -27.8
O=C(O)c1cc(-c2ccc(Cl)cc2)n(-c2ccc(Cl)cc2)n1 | – | – | -7.82
O=C(N/N=C/c1ccncc1)c1ccc(NC(=O)c2ccc(Cl)cc2)cc1 | – | 9.2 µM [rising, partial curve] | –
COc1cccc(Cn2ncc3c4sc(B(O)O)cc4n(C)c3c2=O)c1 | 0.259 µM [rising, full curve, poor fit] | – | –
COc1ccc(-c2cc(-c3n[nH]c(=S)n3-c3cc(OC)ccc3OC)[nH]n2)cc1 | – | 0.164 µM [rising, full curve, poor fit] | –
Cc1ccc(NC(=O)COc2ccc(Br)cc2C)cc1 | 3.66 µM [rising, single point] | 0.82 µM [rising, full curve, poor fit] | 25.1
CCN(CC)C(=O)Cc1c(O)c2ccccc2[nH]c1=O | – | 0.0206 µM [falling, full curve] | -0.65
O=[N+]([O-])c1ccc(S(=O)(=O)NCCS(=O)(=O)N2CCN(c3ccccc3)CC2)cc1 | – | 29.1 µM [falling, single point] | -9.16
Cn1c(COc2ccccc2)nnc1SCCC(=O)Nc1ccccc1 | 10.3 µM [falling, single point] | 4.11 µM [falling, full curve] | -33
COc1ccc(C(=O)Nc2ccc3c(c2)nc(CCNC(=O)c2ccco2)n3C)cc1 | – | – | 18.3
CCCNC(=O)C(C)n1c2ccccc2c2nc(=O)cc(C)n21 (stereo not drawn) | – | 6.51 µM [rising, single point] | -13.9
CN(C)CCCn1c2c(c(SCC(=O)Nc3nccs3)nc1=O)CCC2 | – | 29.1 µM [falling, single point] | 8.07
c1ccc(Cc2nnc3sc(-c4ccncc4)nn23)cc1 | – | 6.51 µM [falling, single point] | –
NS(=O)(=O)c1ccc(NC(=S)Nc2ccn(Cc3cccc4ccccc34)n2)cc1 | 0.366 µM [falling, partial curve, poor fit] | 0.326 µM [falling, partial curve, poor fit] | -4.33
CC(C(=O)Nc1ccccn1)c1ccccc1 (stereo not drawn) | – | 2.31 µM [rising, partial curve, poor fit] | -1.85

SMILES | AC50 [1] | AC50 [2] | cell number change [%]
Cn1c(C(=O)NCCc2ccsc2)cc2c(=O)n(C)c3ccccc3c21 | 0.92 µM [rising, full curve] | 0.92 µM [rising, full curve] | 68
CCOC(=O)Cn1c(=O)c(F)cn(Cc2ccc(OC)c([N+](=O)[O-])c2)c1=O | – | 0.58 µM [rising, single point] | -12.9
Cc1ccc(C)c(N(C(=O)CNC(=O)c2ccco2)C(C(=O)NC2CCCCC2)c2cccnc2)c1 (stereo not drawn) | – | 1.3 µM [falling, single point] | –
CCOc1ncnc2c1oc1nc(CC(C)C)c3c(c12)CC(C)(C)OC3 | – | 1.84 µM [falling, partial curve, poor fit] | -3.75
CCOC(=O)N1CCN(C(=S)NC)CC1 | 0.146 µM [falling, full curve, poor fit] | 3.26 µM [falling, single point] | -17
N#CCSc1nc2ccccc2c(=O)n1-c1ccccc1 | – | – | -8.96
COc1ccc(N(CC(=O)N/N=C/c2ccc(N(C)C)cc2)S(=O)(=O)c2ccccc2)cc1 | – | – | 16.2
COc1ccc(OC)c(NC(=O)C2C3CCC(C3=C(C)C)C2C(=O)O)c1 (stereo not drawn) | 9.2 µM [rising, partial curve] | – | 90.8
COCCc1nc2ccc(C(=O)NCc3cccc(-n4cccn4)c3)cc2o1 | – | – | -9.14
CC(=O)NCC(=O)NC1CCCc2c1cnn2-c1ccccc1F (stereo not drawn) | – | 29.1 µM [rising, single point] | 14.6
Cc1ccc(NC(=O)C(C)N2CCc3ccccc3C2)cc1 (stereo not drawn) | – | 0.116 µM [falling, single point] | 6.41
CC(OC(=O)CC(C)c1ccccc1)C(=O)Nc1ccc(Cl)cn1 (stereo not drawn) | 29.1 µM [falling, single point] | – | -50
Cc1ccccc1C(=O)N1CCN(c2ccc(NC(=S)NC(=O)c3ccco3)cc2)CC1 | – | 0.731 µM [falling, full curve] | -23
Cc1ccc(-n2nc(C)c(C3(O)C(=O)N(C(C)C)c4ccccc43)c2N)cc1 (stereo not drawn) | 2.06 µM [falling, partial curve] | – | 13.9
O=C(CN(C(=O)CCC(=O)Nc1nccs1)c1cccc(F)c1)NCc1ccccc1 | 32.6 µM [rising, single point] | – | 65.3
C=CCc1cc(C)ccc1OCCCC(C(=O)OCC)C(=O)OCC | – | – | 9.85
Cc1cccc(NC(=O)[C@@H]2CCCN2C2=NS(=O)(=O)c3ccccc32)c1C | – | 2.06 µM [falling, single point] | 13.8
CCOc1ccc(C(=O)OCC(=O)NCc2ccccc2)cc1OCC | – | 0.00517 µM [rising, full curve, poor fit] | 0.0684
CCCc1cc(=O)n2c([nH]c3ccccc32)c1C#N | 5.17 µM [rising, partial curve, poor fit] | 2.91 µM [rising, single point] | 31.2
CCC(Sc1nc(C)cc(C)n1)C(=O)NC1=NN=C(c2ccc(C)cc2)CS1 (stereo not drawn) | – | – | 11.3

By substructure: the entries above containing a nitro group on carbon
SMILES | AC50 [1] | AC50 [2] | cell number change [%]
Cc1cc(C)nc(NC(=O)c2ccc([N+](=O)[O-])o2)n1 | 0.0103 µM [falling, full curve, poor fit] | 0.651 µM [falling, full curve, poor fit] | -14
O=[N+]([O-])c1ccc(NCCCN2CCOCC2)c(Cl)c1 | – | 0.411 µM [falling, full curve] | -23.2
O=[N+]([O-])c1ccc(S(=O)(=O)NCCS(=O)(=O)N2CCN(c3ccccc3)CC2)cc1 | – | 29.1 µM [falling, single point] | -9.16
CCOC(=O)Cn1c(=O)c(F)cn(Cc2ccc(OC)c([N+](=O)[O-])c2)c1=O | – | 0.58 µM [rising, single point] | -12.9
